Results are given in words; binding and its absence hold for the method and conditions named. Binding seen in cells or lysates may run through a third protein. Binding calls can cover weak binding; strength is not graded here.
Legend:
FAM134C-ΔLIR-FLAG = FAM134C-ΔLIR-FLAG (UniProt Q86VR2); test: co-IP; HEK293T co-transfected, harvested 24 h after transfection; FLAG-tagged FAM134 protein immunoprecipitated with anti-FLAG antibody and protein A Sepharose; HA-tagged partner or endogenous LC3 detected by Western blotting
FAM134C-mLIR-FLAG = FAM134C-mLIR-FLAG (UniProt Q86VR2); test: as above

Amino acid sequences for entries named in this document (tags omitted). A change or cut given only in a name is not applied to a line headed by its entry. Residues count along the entry.
UniProt Q86VR2: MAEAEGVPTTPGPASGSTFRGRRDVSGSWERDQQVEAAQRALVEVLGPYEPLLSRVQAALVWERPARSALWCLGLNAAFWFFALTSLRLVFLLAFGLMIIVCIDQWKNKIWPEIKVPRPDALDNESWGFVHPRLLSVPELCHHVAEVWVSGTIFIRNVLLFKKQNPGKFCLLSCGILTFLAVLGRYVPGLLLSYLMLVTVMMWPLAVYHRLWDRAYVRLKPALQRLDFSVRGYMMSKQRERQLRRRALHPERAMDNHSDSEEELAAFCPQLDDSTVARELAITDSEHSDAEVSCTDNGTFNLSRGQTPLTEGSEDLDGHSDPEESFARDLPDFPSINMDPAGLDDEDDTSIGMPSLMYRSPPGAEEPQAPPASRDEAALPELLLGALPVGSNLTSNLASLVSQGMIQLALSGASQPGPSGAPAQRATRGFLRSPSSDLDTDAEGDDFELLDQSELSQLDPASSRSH
UniProt P36894, residues 24-532: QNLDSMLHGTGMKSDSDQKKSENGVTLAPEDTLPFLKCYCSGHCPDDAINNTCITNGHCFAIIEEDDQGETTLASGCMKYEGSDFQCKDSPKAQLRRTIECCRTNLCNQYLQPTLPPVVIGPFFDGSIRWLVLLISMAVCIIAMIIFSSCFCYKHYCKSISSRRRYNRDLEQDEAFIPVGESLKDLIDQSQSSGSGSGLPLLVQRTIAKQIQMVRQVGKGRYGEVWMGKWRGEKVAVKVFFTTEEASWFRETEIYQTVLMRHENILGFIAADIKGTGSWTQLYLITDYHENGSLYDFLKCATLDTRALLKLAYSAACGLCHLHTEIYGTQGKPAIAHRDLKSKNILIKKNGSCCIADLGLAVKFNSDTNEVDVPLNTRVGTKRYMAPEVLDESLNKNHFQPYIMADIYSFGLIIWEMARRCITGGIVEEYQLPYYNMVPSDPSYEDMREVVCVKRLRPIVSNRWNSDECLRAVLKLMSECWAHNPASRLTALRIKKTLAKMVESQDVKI

binding (FAM134C-ΔLIR-FLAG): binds
binding (FAM134C-mLIR-FLAG): binds
Substance: BMPR1A-HA (from UniProt P36894 24-532) (receptor)
